Library screening results

Mtb growth Cornell: 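Whole-cell assay for inhibitors of Mycobacterium tuberculosis growth, labelled Cornell in the record; the read-out is not stated. The concentration is filed as 10 mM, unlikely as a test dose, so the dose is not known. The record gives no direction; compounds strong in two other growth screens of this library score well above the rest, so higher reads as stronger inhibition. About 53,000 compounds were tested under these conditions; 1.7% (about 900) showed 50% or more at least once.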
Mtb heat-shock: 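Assay on Mycobacterium tuberculosis, filed only as a heat shock assay from Cornell; the read-out is not stated. The concentration is filed as 10 mM, unlikely as a test dose, so the dose is not known. The record gives no direction; compounds that gave an IC50 in retests scored well above the rest, so higher reads as stronger inhibition. Size under these conditions: about 69,000 compounds, about 930 of them at 50% or above in at least one test.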

Results are given as percent effect.
How 0% and 100% were set is not recorded. Most values in the screen are low, and negative values occur.
The compounds are a random part of those screened.
A dash means the value is not listed here; it may have been measured.

| # | compound | Mtb growth Cornell | Mtb heat-shock |
|---|---|---|---|
| 1 | `Cc1ccc(C)c(CS(=O)(=O)CC(=O)Nc2ccc(F)cc2F)c1` | - | -6.041 |
| 2 | `Cc1ccc(OCC(O)Cn2ncc3cnn(C)c(=O)c32)cc1` (stereo not given) | -3.161 | 9.91 |
| 3 | `O=S(=O)(CCCn1cncn1)Cc1ccc(F)cc1Cl` | -124.6 | -5.071 |
| 4 | `Cc1ncsc1CN1CCN(C2CCOCC2)CC(C(N)=O)C1` (stereo not given) | -33.08 | -18.19 |
| 5 | `Cc1nc(C(C)(C)C)sc1C(=O)NCCn1ccnc1` | 10.85 | -4.775 |
| 6 | `Cc1cc(C(=O)N2CCCCC2C)ccc1NC(=O)N1CCOCC1` (stereo not given) | - | -10.19 |
| 7 | `CC(c1nc(C2CC2)no1)N1CCN(Cc2nnc(C3CC3)o2)CC1` (stereo not given) | - | 2.201 |
| 8 | `I.c1ccc(OCCNC2=NCCCN2)cc1` | -37.61 | 0.6236 |
| 9 | `CCn1nc(Br)nc1Sc1ccccc1NC(C)=O` | - | 12.7 |
| 10 | `[H][C@]12CC[C@]([H])(CN(S(=O)(=O)N(C)C)C1)N(C(=O)c1cccc(C)n1)C2` | 10.83 | -28.64 |
| 11 | `O=C(c1cnc2ccccc2c1)N1CCCC(O)(CN2CCCC2)C1` (stereo not given) | -30.83 | -15.49 |
| 12 | `F[C@@H]1CN(CC2CC2)C[C@@H]1OCc1nc2ccc(C(F)(F)F)cc2[nH]1` | 9.773 | 26.34 |
| 13 | `CN(Cc1ccc(Cl)s1)C(=O)c1cccc(OCC(N)=O)c1` | - | -8.66 |
| 14 | `CN(Cc1cccnc1)C1CC2(CCN(Cc3ccccn3)CC2)C1.O=C(O)C(F)(F)F.O=C(O)C(F)(F)F.O=C(O)C(F)(F)F` | 7.125 | -10.54 |
| 15 | `Cc1ncc(CNC(=O)Cc2ccc(Cl)cc2)c(C2CCCN2C)n1` (stereo not given) | 3.337 | 3.489 |
| 16 | `Cc1nsc(N2CCN(C(=O)Nc3ccc4[nH]ccc4c3)CC2)n1` | 3.785 | 6.959 |
| 17 | `Cc1nc(N2CCN(C(=O)c3ccncc3)CC2)c2c(n1)c(C)nn2C` | - | -22.8 |
| 18 | `Cc1ccc(-c2nnc(CN3CCc4nn(C)c(=O)cc4C3)o2)cc1` | - | 17.81 |
| 19 | `Cn1c(N)nnc1SCc1cc(Br)ccc1Cl` | 34.32 | -13.85 |
| 20 | `COCCN(C)C[C@@H]1CN(C(=O)c2sc3ccccc3c2C)C[C@@H]1CO` | -10.34 | -3.264 |
| 21 | `CC(C)Cc1nc(CN2CCOC(Cn3cncn3)C2)no1` (stereo not given) | - | -6.148 |
| 22 | `CCn1nc(C(=O)N2CCCC2c2noc(C)n2)ccc1=O` (stereo not given) | -42.56 | -25.25 |
| 23 | `CN(C)C[C@@H]1CN(C(=O)Cc2ccc3ccccc3c2)C[C@@H]1CO` | -7.74 | -18.89 |
| 24 | `c1cnnc(N2CCCC2CNCc2nc(-c3ccsc3)no2)c1` (stereo not given) | 9.792 | -20.6 |
| 25 | `CCC(O)CN(Cc1cccc(C(=O)N(C)C)c1)c1ccccc1` (stereo not given) | - | -8.943 |
| 26 | `Cn1nc(C2CN(S(C)(=O)=O)C2)c2nccnc21` | -1.799 | -8.917 |
| 27 | `CC1CCc2nc(O)c(C(=O)NCCCN3CCN(C)CC3)cc2C1` (stereo not given) | 21.95 | 10.82 |
| 28 | `CCc1cc(CN2CCC(CCC(=O)Nc3ccccc3Cl)CC2)on1` | 9.403 | -22.41 |
| 29 | `CN(C)C(=O)c1cnc2n1CCN(Cc1ccccc1)C2.O=C(O)C(F)(F)F` | - | 9.565 |
| 30 | `O=C(O)C(F)(F)F.[H][C@@]12CN(Cc3cccc(F)c3)C[C@]1([H])CN(C(=O)c1cccn1C)C2` | 14.28 | 1.766 |
| 31 | `O=C1CCCN1Cc1nnc2n1CCCN(C(=O)c1ccco1)C2` | -34.64 | 42.62 |
| 32 | `CC(NC(=O)C(C)(C)C#N)c1ccc(OCC2CC2)c(F)c1` (stereo not given) | 28.26 | 0.6071 |
| 33 | `CN(C)C(=O)CCC1CCCN(Cc2cccc(-c3ccccn3)c2)C1` (stereo not given) | 4.973 | -16.57 |
| 34 | `Cc1nc(C(=O)N(C)CC2CCCO2)nn1-c1ccccc1C(C)C` (stereo not given) | - | 10.6 |
| 35 | `Cc1ccc(Nc2ncnc3c2CCN(CC2CCOC2)CC3)cc1.O=C(O)C(F)(F)F` (stereo not given) | 11.03 | -16.77 |
| 36 | `CCN(Cc1ccc(Cl)s1)S(=O)(=O)CCOC` | - | 5.72 |
| 37 | `O=C(CC1CCCCC1)NC1CCCCNC1=O` (stereo not given) | - | 10.39 |
| 38 | `Cl.Cl.[H][C@@]12OCCC[C@]1([H])NC[C@@H]2NC(=O)c1cccnc1` | -29.08 | -24.68 |
| 39 | `CCc1nnc2n1CCN(CC(O)CN1CCC(C)CC1)C2` (stereo not given) | 5.581 | -0.7429 |
| 40 | `Cc1nnc(CN2CCOC(c3ccc(Cl)c(Cl)c3)C2)o1` (stereo not given) | 28.32 | -21.88 |
| 41 | `O=C(C1CC=CC1)N1CCc2c(COCc3ccncc3)cncc2C1.O=C(O)C(F)(F)F.O=C(O)C(F)(F)F` | -7.461 | 6.706 |
| 42 | `O=C(c1cccnc1)N1CCc2[nH]nc(Nc3ccccc3)c2C1` | 46.76 | 14.9 |
| 43 | `O=C(c1coc2ccccc12)N1CCCC1` | 16.1 | 7.086 |
| 44 | `CN1CCC(N(CCc2ccccc2)C(=O)c2ccc(CO)cc2)CC1` | -6.665 | 24.64 |
| 45 | `O=C(NCCn1cccc1)C1CCC(=O)N(C2CCCC2)C1` (stereo not given) | -8.986 | -48.3 |

4 of the entries, repeated:

| compound | Mtb growth Cornell | Mtb heat-shock |
|---|---|---|
| `Cc1nsc(N2CCN(C(=O)Nc3ccc4[nH]ccc4c3)CC2)n1` | 3.785 | 6.959 |
| `c1cnnc(N2CCCC2CNCc2nc(-c3ccsc3)no2)c1` (stereo not given) | 9.792 | -20.6 |
| `I.c1ccc(OCCNC2=NCCCN2)cc1` | -37.61 | 0.6236 |
| `COCCN(C)C[C@@H]1CN(C(=O)c2sc3ccccc3c2C)C[C@@H]1CO` | -10.34 | -3.264 |

Data taken from ChEMBL document CHEMBL3988442, “University of Dundee, Small-Polar-MMV Screening Library” (2021).